These are yes or no findings as the source states them, for the method shown. Binding seen in cells or lysates may run through a third protein. Some results given as binding are weak or reduced against the parent protein; the word gives no strength.
Biological target: Epitope-tagged HOIP aa 1–436 (PUB, B box and NZF domains) (UniProt Q96EP0)
Assay: co-IP; domains of epitope-tagged HOIP transfected into U2OS and NOD2 cells; immunoprecipitates probed for endogenous OTULIN and endogenous HOIP

Amino acid sequences for entries named in this document (tags omitted). A change or cut given only in a name is not applied to a line headed by its entry. Chains listed by the source or under a name are the forms on record and can include a tag or linker. Residues count along the entry.
UniProt Q96EP0: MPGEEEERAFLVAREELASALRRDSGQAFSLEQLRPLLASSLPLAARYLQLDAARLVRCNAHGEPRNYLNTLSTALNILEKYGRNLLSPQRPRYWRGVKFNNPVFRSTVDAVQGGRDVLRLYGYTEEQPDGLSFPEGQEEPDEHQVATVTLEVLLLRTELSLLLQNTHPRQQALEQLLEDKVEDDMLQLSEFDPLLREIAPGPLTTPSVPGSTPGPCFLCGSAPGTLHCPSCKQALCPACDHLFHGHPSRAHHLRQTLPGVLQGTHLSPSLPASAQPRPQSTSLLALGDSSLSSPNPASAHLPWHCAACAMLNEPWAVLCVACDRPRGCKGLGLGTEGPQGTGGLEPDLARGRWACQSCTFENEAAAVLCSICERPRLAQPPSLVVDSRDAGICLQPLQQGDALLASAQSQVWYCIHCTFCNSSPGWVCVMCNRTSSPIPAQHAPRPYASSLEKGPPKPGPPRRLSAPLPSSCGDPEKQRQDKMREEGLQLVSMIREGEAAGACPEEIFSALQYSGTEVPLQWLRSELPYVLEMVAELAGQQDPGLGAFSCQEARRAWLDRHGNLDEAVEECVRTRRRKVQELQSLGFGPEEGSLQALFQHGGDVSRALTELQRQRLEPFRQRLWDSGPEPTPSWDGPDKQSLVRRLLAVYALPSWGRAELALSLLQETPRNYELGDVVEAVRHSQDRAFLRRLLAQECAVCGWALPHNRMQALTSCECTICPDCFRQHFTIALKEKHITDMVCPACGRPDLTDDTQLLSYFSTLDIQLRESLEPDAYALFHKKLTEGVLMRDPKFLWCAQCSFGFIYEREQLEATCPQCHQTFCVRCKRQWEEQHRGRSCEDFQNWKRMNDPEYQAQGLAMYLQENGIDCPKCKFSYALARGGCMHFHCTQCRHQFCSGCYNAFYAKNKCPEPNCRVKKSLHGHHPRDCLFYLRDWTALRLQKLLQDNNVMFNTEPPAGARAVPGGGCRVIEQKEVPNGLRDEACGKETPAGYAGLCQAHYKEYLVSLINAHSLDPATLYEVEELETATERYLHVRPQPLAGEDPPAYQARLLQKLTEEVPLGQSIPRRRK
Epitope-tagged HOIP aa 1–436 (PUB, B box and NZF domains): residues 1-436 of Q96EP0

- binding: binds
Substance: endogenous HOIP (from UniProt Q96EP0 1-1072)

From paper PMC4017264, “Molecular Basis and Regulation of OTULIN-LUBAC Interaction” (Molecular Cell, 2014)
